# Laboratory results published in paper PMC4041471, “Cas6 specificity and CRISPR RNA loading in a complex CRISPR-Cas system” (Nucleic Acids Research, 2014).
# Sequences of proteins named here, by UniProt entry; tags and fusion partners are left off.
# UniProt P0A6F5: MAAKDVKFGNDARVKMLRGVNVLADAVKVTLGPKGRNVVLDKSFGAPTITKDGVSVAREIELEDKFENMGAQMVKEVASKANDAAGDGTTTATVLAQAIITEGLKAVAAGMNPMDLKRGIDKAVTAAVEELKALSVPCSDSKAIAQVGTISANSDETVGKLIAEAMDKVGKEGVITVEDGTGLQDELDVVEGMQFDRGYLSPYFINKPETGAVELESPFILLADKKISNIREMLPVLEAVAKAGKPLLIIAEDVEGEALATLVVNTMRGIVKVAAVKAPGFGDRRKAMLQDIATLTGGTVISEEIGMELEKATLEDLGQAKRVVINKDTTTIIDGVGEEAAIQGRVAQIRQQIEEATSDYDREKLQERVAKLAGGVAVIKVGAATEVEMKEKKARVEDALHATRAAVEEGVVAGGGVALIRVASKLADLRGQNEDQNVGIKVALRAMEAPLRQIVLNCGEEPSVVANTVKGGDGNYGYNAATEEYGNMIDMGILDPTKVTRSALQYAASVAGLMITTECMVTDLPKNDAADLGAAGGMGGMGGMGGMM
# These are yes or no findings as the source states them, for the method shown. Some binding calls cover weakened binding; strength is not graded here. Where a sequence is shown, tags or fusion partners need not be part of it.
# Target: T1, MBP-Cas6-3 (MBP-Sso1422 fusion protein) (S. solfataricus) (UniProt Q97YB0)
# T1 sequence: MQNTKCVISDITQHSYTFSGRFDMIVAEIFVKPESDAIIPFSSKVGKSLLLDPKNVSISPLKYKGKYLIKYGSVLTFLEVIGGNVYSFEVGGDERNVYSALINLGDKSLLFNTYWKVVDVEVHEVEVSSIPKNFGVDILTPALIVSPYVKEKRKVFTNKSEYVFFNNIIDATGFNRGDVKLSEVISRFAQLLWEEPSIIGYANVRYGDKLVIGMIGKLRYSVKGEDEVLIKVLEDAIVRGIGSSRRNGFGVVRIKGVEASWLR
# Assay: co-purification (immobilised metal affinity chromatography, then SEC); cleared E. coli C43 lysate on HisTrap FF (50 mM Tris-HCl pH 7.5, 500 mM NaCl, 30-500 mM imidazole, 10% glycerol), then Superdex 200 10/300 in 20 mM Tris-HCl pH 7.5, 300 mM NaCl, 10% glycerol
substance,measurement,value
E. coli chaperone GroEL (from UniProt P0A6F5 1-548),binding,binds
